# Where a name gives a salt, the structure may show the parent alone. The list shows a part of the results. This is a noisy data set.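 Yeast growth was measured as optical density at 600 nm. Two-hybrid strains grew without histidine, so growth depended on Pex3–Pex19 binding. A compound was trypanosome-selective if it reduced growth of the trypanosome-pair strain by over 65% and of the human-pair strain by under 65%.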
# What was measured:
# [1] = tested on: Saccharomyces cerevisiae HF7c pdr5Δ; assay: general growth inhibition of yeast HF7c pdr5Δ in -Leu -Trp medium, relative to DMSO; higher = stronger general growth inhibition; conditions: 100 µM; 24 h
# [2] = tested on: human PEX3-PEX19 interaction (yeast two-hybrid); assay: growth inhibition of yeast two-hybrid strain reporting HsPex3-HsPex19 interaction, relative to DMSO; higher = stronger inhibition of human Pex3-Pex19 interaction / growth; conditions: 100 µM; 24 h; 3-aminotriazole 10 mM
# [3] = tested on: T. brucei Pex3-Pex19 interaction (yeast two-hybrid); assay: growth inhibition of yeast two-hybrid strain reporting TbPex3-TbPex19 interaction, relative to DMSO; higher = stronger inhibition of T. brucei Pex3-Pex19 interaction / growth; conditions: 100 µM; 24 h
SMILES,general growth inhibition [1] [%],growth inhibition [2] [%],growth inhibition [3] [%]
CS(=O)(=O)Nc1ccc([N+](=O)[O-])cc1Oc1ccccc1 [Nimesulide],48.6,49.1,63.3
"O=c1[nH]ccc2c(O)cccc12 [1,5-Isoquinolinediol]",46.9,45.3,62.5
O=C1N(c2ccccc2)c2ccccc2C1(Cc1ccncc1)Cc1ccncc1 [Linopirdine],44.9,43.5,59.6
O=[N+]([O-])c1ccc(CSc2ncnc3c2ncn3[C@@H]2O[C@H](CO)[C@@H](O)[C@H]2O)cc1 [S-(4-Nitrobenzyl)-6-thioinosine],40.7,46.7,72.9
O=C(NOCC1CC1)c1cc(Br)c(F)c(F)c1Nc1ccc(I)cc1Cl,32.8,24.1,37.4
NCCc1c[nH]cn1 [Histamine dihydrochloride],39.9,45.6,65.2
COc1cc2ncnc(Nc3cccc(Cl)c3)c2cc1OC [Tyrphostin AG 1478],41.9,33.9,43.9
COc1cccc(OC)c1OCCNCC1COc2ccccc2O1 (stereo unspecified) [WB-4101 hydrochloride],18.8,39,54.3
COc1ccc(CC(C)NCC(O)c2ccc(O)c(NC=O)c2)cc1 (stereo unspecified) [Formoterol],26.6,44.2,52.5
"O=C1NC(=O)C(c2ccccc2)(c2ccccc2)N1 [5,5-Diphenylhydantoin]",34.4,47.8,69.3
CCCCCCCCCC(=O)NC(CN1CCOCC1)[C@H](O)c1ccccc1 (mixture of isomers),17.4,19.5,33.9
COc1ccc2c(c1)c(CC(=O)O)c(C)n2C(=O)c1ccc(Cl)cc1 [Indomethacin],64.5,46.5,55.5

# Source: the supplement of paper PMC8326762, “A Small Molecule Inhibitor of Pex3–Pex19 Interaction Disrupts Glycosome Biogenesis and Causes Lethality in Trypanosoma brucei” (Frontiers in Cell and Developmental Biology, 2021)
